In patent publication US11851681B2, “Cell preparation method” (KYOTO PREFECTURAL PUBLIC UNIVERSITY CORPORATION, priority 2015, dated 2023):
At least one compound was matched to its structure with a doubt left.

Experiments:
[1] = test system: human dermal fibroblasts; HDFs; test: Alizarin Red S staining and absorbance, compound panel, Examples 29-30; type: cell-based; conditions: calcification induction medium; compounds 2 μM (Pifthrin-α 5 μM, DZnep 50 nM); day 28; FIG. 33, 34
Procedure: The compounds added to the medium and the concentrations thereof are as follows. • I-BET151: 2 μM • Pifthrin-α: 5 μM • PD0325901: 2 μM • 2-Me-5HT: 2 μM • CX4945: 2 μM • CHIR99021: 2 μM • Forskolin: 2 μM • DZnep: 50 nM • D4476: 2 μM • SB431542: 2 μM • ALK5 i II: 2 μM.
In the experiment of Example 29, the solution after staining with the Alizarin Red S staining solution was collected in a 96 well plate and the absorbance (OD 550 nm) was measured with an absorption spectrometer.

[2] = test system: Human normal skin fibroblast strain HDFs; test: Real-time RT-PCR of ALP with statin compounds, Example 11; type: cell-based; conditions: statin 100 nM together with D4476 in osteoblast induction medium; 28 days
[3] = test system: human dermal fibroblasts; HDFs; test: Bodipy staining quantification in WA medium, four inhibitors, Example 49; type: cell-based; conditions: 1 μM Rosiglitazone or 16 μM ALK5 inhibitor II, day 12, FIG. 53
[4] = test system: human dermal fibroblasts; HDFs; test: Bodipy staining in WA medium (BODIPY positive cells), Example 46; conditions: 1 μM Rosiglitazone or 16 μM ALK5 inhibitor II, day 12, FIG. 50
[5] = test system: human dermal fibroblasts; HDFs; test: Bodipy staining in WA medium (staining figure), Example 45; conditions: ALK5 inhibitor II 16 M or Rosiglitazone 1 μM alone, day 12, FIG. 49

C=C[C@@]1(C)CC(=O)[C@]2(O)[C@@]3(C)[C@@H](O)CCC(C)(C)[C@@H]3[C@H](O)[C@H](OC(C)=O)[C@@]2(C)O1 [Forskolin]
conversion from fibroblast to osteoblast, Alizarin Red S staining and absorbance [1]: do not induce conversion from fibroblast to osteoblast

CC[C@H](C)C(=O)O[C@H]1C[C@H](O)C=C2C=C[C@H](C)[C@H](CC[C@@H](O)C[C@@H](O)CC(=O)O)[C@H]21 [PrS, Pravastatin]
ALP expression (mRNA), statin together with D4476 versus D4476 alone [2]: more strongly induced ALP expression than by D4476 alone

CN(CCOc1ccc(CC2SC(=O)NC2=O)cc1)c1ccccn1 (centres unmarked) [Rosiglitazone]
fat accumulation (BODIPY positive cells, area, intensity), single addition [3]: showed accumulation of a small amount of fat
BODIPY positive cells / conversion to white adipocyte, single addition [4]: contained stained cells at low frequency
Bodipy staining / conversion to white adipocyte, single addition [5]: contains weakly-stained cells at low frequency
